The text below walks through data of US20130280187A1, “Compositions and Methods for Improving the Appearance of Facial Pores” (THE PROCTER & GAMBLE COMPANY, priority 2012, published 2013).

Where “and” joins values, the source holds several entries; their conditions need not be identical. Equal entries are not always repeated.

For this series, the system named is procollagen I. Nature of the series: In vitro skin biomarker test, procollagen I ELISA in MatTek human skin equivalent. The series is classed as cell-based. To be noted: single skin cultures, 24 hours after treatment; Glyco-Repair 3% topical, TGF-b 2 ng/mL in media. As for the experimental part:
The model used in the test is a MatTek™ brand human skin equivalent available from the MatTek Corporation, which is a full thickness culture system that emulates normal human skin properties and function. The MatTek™ brand skin model contains a three-dimensional, highly differentiated human epidermis with 8-12 cell layers including basal, spinous, granular and stratum corneum layers. The epidermis is grown above a human dermal fibroblast-containing collagen matrix. The skin model is configured to permit the topical application of test materials to the stratum corneum surface of the model. The skin model cultures are supplied in 24-well plate. Each well of the plate includes a snap-well fitting and the skin culture in a media-supplemented agarose gel.
Prior to testing, the skin model cultures are examined for visual defects and equilibrated overnight at 37° C., 5% CO2, and 95% RH. The skin cultures were transferred to fresh 24-well plates by removing the snap-well fitting along with the skin culture and placing it in a well of the new plate. […]
Twenty-four hours after treatment, the skin cultures were removed from the incubator and visually inspected for defects (e.g., to see if media leaked up through the culture insert). […] The supernatant was collected and analyzed with a Micro BCA kit to quantitate protein concentration. […]

In the case of transforming growth factor beta [TGF-b], the “Protein (total protein)” value was 2 µg and 3 µg.
